Primary screen of a compound library

Data taken from ChEMBL document CHEMBL3988442, “University of Dundee, Small-Polar-MMV Screening Library” (2021).

The filed quantity is “Percent Effect” (%). The record does not define 0% and 100%; most values in the screen are far below 50% and negative numbers occur (in some assays of this library far below -100). Compounds were drawn at random from those tested, without regard to their results. Two or more numbers in one place are separate tests of the same structure; such repeats can differ widely.

Mtb glucose medium: 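Phenotypic screen: M. tuberculosis growth, glucose 7H9 medium, 3 days; the read-out is not stated. Concentration: 50 µM. Direction is inferred from retests: higher values go with more growth inhibition. Of about 69,000 compounds tested this way, about 760 (1.1%) reached 50% or more in at least one test.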
Mtb cholesterol medium: 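Phenotypic screen: M. tuberculosis growth, cholesterol and DPPC medium, 4 days; the read-out is not stated. Compounds at 50 µM. Higher reads as more growth inhibition (inferred: compounds with an IC50 in retests scored well above the rest). Size under these conditions: about 69,000 compounds, about 370 of them at 50% or above in at least one test.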

Compound	Mtb glucose medium	Mtb cholesterol medium
NC(=O)NCCC(=O)N1CCC(c2cc(-c3ccccc3Cl)n[nH]2)CC1	-3.893	2.125
CC1CN(Cc2nccn2C)CCN1c1ccc2nncn2n1 (configuration not stated)	8.659	1.35
CC(C)c1cc(C2CCCN2C(=O)CN2C(=O)CCNC2=O)no1 (configuration not stated)	-12.31	-23.32
CCOc1ccc(CC(=O)N2CCCC2c2cc(C)on2)cc1 (configuration not stated)	3.892	8.395
O=C(O)C(F)(F)F.O=C(O)C(F)(F)F.[H][C@@]12CCC(=O)N(Cc3ccncc3)[C@]1([H])CCN2Cc1ccc(C)s1	19.68	9.413
Cc1[nH]c(=O)sc1S(=O)(=O)N1CCCC1C(=O)NCc1ccsc1 (configuration not stated)	8.698 & 13.37	-1.976
Cc1cccc(CNCC2(O)CCCN(CC3CCCCC3)C2=O)n1 (configuration not stated)	-1.11	-7.325
CCc1cnc(N)nc1NCCCN1CCCCC1CO (configuration not stated)	10.35	-6.779
COc1ccc(CCn2ccnc2-c2cc3n(n2)CCCNC3)cc1	-14.37 & 3.517	-8.273
Cc1ccoc1C(=O)NCCS(=O)(=O)N1CCSCC1	22.17	-1.379
COc1cccc(CC2(C(=O)O)CCN(c3ccc(Cl)cn3)CC2)c1	10.57	13.56
CN(C)c1ncc(-c2c(-c3ccccc3)ncn2C(CO)C(=O)O)cn1 (configuration not stated)	-19.25	-1.619
COc1ccccc1-n1nc(CC(C)C)nc1CSc1nnc(N)s1	-4.45 & -16.07	-0.8479
Cn1cnnc1C1CCCN(C(=O)CCc2ccc3c(c2)OCO3)C1 (configuration not stated)	-32.36	4.2
CC(=O)N[C@@H]1CN(Cc2cccs2)C[C@H]1c1ccc(C)o1	11.33	-13.63 & -20.88
COCCN(Cc1nccs1)c1nc2c(s1)c(C)nn2C	12.02 & 3.04	-6.241
COc1ccc(CNCCn2c(C)nc3ccccc32)cc1O	-19.67	-18.84
CN1CCOC(CNC(=O)CCCOCCc2ccccc2)C1 (configuration not stated)	-0.2706	5.255
CCCn1nc2c(cc1=O)CN(c1ncnc3ccsc13)CC2	10.79	2.269
CCCNC(=O)c1cc(Br)cc(S(=O)(=O)N2CCOCC2)c1F	5.681	-9.76
CSc1nc(N)c2c(n1)N=C1COC(O)=C1C2c1cccc(O)c1 (configuration not stated)	-8.56	-0.156
CCCc1noc(CCC(=O)N2CCN(C)CC2c2ccccc2)n1 (configuration not stated)	-0.8051 & 9.783	13.43
Cc1cccc(N2Cc3nc(=O)[nH]n3C2=O)c1	-20.2	-12.79
CCC(C)(C)NC(=O)c1scnc1Cl	-33.99 & -4.412	-5.393
Cl.[H][C@@]12CNC[C@]1([H])CN(C(=O)C1CCCCC1)C2	-7.222	-2.303
CSCc1noc(CNC(=O)c2cc(C)c(C)[nH]c2=O)n1	-34.92	-14.58 & 3.707
CCOc1ccnc(NCCc2nc(C)cc(=O)[nH]2)n1	-5.495	8.344
Cc1cc(NC(=O)CNC2CCCN(c3cccnn3)C2)on1 (configuration not stated)	-24.67	-10.53
CC1CCCCN1c1nc2c(c(=O)[nH]1)CCN(Cc1ccccn1)C2 (configuration not stated)	-31.86	-31.5
Cc1cc(CN2CCN(C(C)c3nc(C(C)C)no3)CC2)no1 (configuration not stated)	-20.82	-6.75
Cc1cccc(N2CCC3(CCCN3Cc3cn(C)nc3C)CC2)n1	15.8	-15.4
CCN(Cc1ccc2c(c1)OCCO2)C(=O)NCc1nc(C)cs1	-5.685	-21.74
Cn1cnc2c1CCN(CC(O)c1ccc3c(c1)OCCO3)C2 (configuration not stated)	3.07	-21.56
CCCC(Cn1cnc(-c2ccccc2)c1-c1cncn1CC)N(C)C (configuration not stated)	-5.695 & 3.163	-10.14
O=C(NCC1CC1)C1CN(C(=O)Cc2cccs2)CC12CCOCC2 (configuration not stated)	-5.714 & 1.993	-17.88
Cc1ccc(CN(C)C(=O)CN2CCCC2Cn2cncn2)cc1 (configuration not stated)	-20.37 & 12.75	-19.31
[H][C@@]12C[C@@H](OC)C[C@]1([H])CN(C(=O)c1cc(F)ccc1OC)C2	-32.94	-9.162 & 1.424
COC(=O)N1CC(C)=C(C)CN1C(=O)Nc1ccc(Cl)cc1	14	-7.481
Cc1cn2nc(N3CCN(Cc4cc(C)on4)CC3)sc2n1	-3.066	-5.557
COc1ccc(CNCC2CC2)cc1F	13.96	0.8383 & 4.57
COCCOCC(=O)NC1CCN(c2ccccn2)CC1	-8.111 & 40.02	-21.51
CNc1ncc(CN(C)CCN2CCCCC2)cn1	-18.13	-30.61
CS(=O)(=O)CCNC(=O)Nc1ccc(Cl)cc1-n1cccc1	-13.25	-37.96
O=C(CCNc1ccc(Cl)cn1)NCc1ccncc1	-0.08206	20.72
Cc1nn(Cn2ccc(C(=O)N3CCC(C)CC3)n2)c(C)c1Cl	21.68 & 7.298	-7.679
Cc1nc(C)n(CC2CN(Cc3ccncc3)Cc3nccn3C2)n1.O=C(O)C(F)(F)F.O=C(O)C(F)(F)F (configuration not stated)	-17.69 & -5.984	2.63 & -4.008
COc1ccccc1OCC(=O)NS(=O)(=O)c1ccccc1F	15.57	9.521
COc1cc(CNC(C)c2cccc(Cl)c2)cc(OC)c1OC (configuration not stated)	-9.571	-7.041 & 2.409
CCc1ncc(C(=O)N2CCN(c3nc(C)cc(OC)n3)CC2)s1	-1.668 & 14.2	3.685
c1cncc(O[C@H]2COCCN(C3CCC3)C2)c1	-17.24 & 0.7475	-13.86
O=C(O)C(F)(F)F.[H][C@@]12CCN(CC(C)C)[C@@]1([H])CCN2C(=O)N1CCCC1	13.95 & -0.000476	19.14
CCN(CC)CCCNCc1cc2cc(C)cc(C)c2[nH]c1=O	31.54	7.542
CN(Cc1cccs1)C(=O)CN1CCCC(Cn2cncn2)C1 (configuration not stated)	-6.337	-25.25
COc1ccc(CN2CCC3(CC2)CCN(c2ncccn2)CC3)cc1	5.461	0.8417
Cc1ncc(CN2CCC3(CCCN(CC4CCC4)C3)C2)cn1 (configuration not stated)	22.23	-6.752
FC(F)(F)c1n[nH]c2c1CN(Cc1cn3ccccc3n1)CC2	-10.2	-5.486
c1ncn(CC2CCCN(Cc3nc(C4CC4)no3)C2)n1 (configuration not stated)	-0.3565	-2.08
O=C(O)C(F)(F)F.O=C(c1ccncc1)N1CCc2ncnc(C3CC3)c2CC1	-22.23	-4.628 & 1.543
CC(C)N(C)Cc1cnc2n1CCN(S(=O)(=O)c1ccccc1)C2.O=C(O)C(F)(F)F	-40.97	-8.797
Cc1cccnc1CN1CCC(c2nnc(Cn3cccn3)n2C)CC1	-26.71 & -5.293	-24.76
Cc1cc(C(=O)N2CCC(c3nccn3Cc3ccccn3)CC2)no1	-23.9	0.6982 & -6.915
CCC(CO)NC(=O)Nc1cc(F)ccc1SCC(F)F (configuration not stated)	10.39	11.94
CN(Cc1ccccc1)CC(C)(C)NC(=O)c1ccon1	-6.355	7.279
O=c1c2cccnc2cnn1CC(O)c1cccc(C(F)(F)F)c1 (configuration not stated)	-4.159	-16.46
CN1CCC(N[C@@H]2CO[C@H](CNC(=O)c3cccs3)[C@H]2O)CC1	-13.04 & 1.657	6.283
Cc1ccc(C(=O)NS(=O)(=O)Cc2ccc(F)cc2)cc1S(C)(=O)=O	11	-9.187
CCN(CC)CCn1ccnc1-c1cccc(C#N)c1	13.1	-13.27
COc1ncc(NS(=O)(=O)c2cccc(C)c2)c(OC)n1	-30.35	-18.73
Cc1cnn(CC2CCCN2Cc2noc(C)n2)c1 (configuration not stated)	0.7725	-10.7
CNC(=O)CS(=O)(=O)Cc1coc(-c2ccc(F)cc2)n1	-5.929	8.436
CC(=O)N1CCN(C(=O)c2c(Cl)c3ccccc3n2C)CC1	21.3	19.79
CCNC(=O)C1CCN(c2cc(CC)nc3ccnn23)C1 (configuration not stated)	14.69	-8.998

The last 6 entries again:

| Compound | Mtb glucose medium | Mtb cholesterol medium |
|---|---|---|
| `CCN(CC)CCn1ccnc1-c1cccc(C#N)c1` | 13.1 | -13.27 |
| `COc1ncc(NS(=O)(=O)c2cccc(C)c2)c(OC)n1` | -30.35 | -18.73 |
| `Cc1cnn(CC2CCCN2Cc2noc(C)n2)c1` (configuration not stated) | 0.7725 | -10.7 |
| `CNC(=O)CS(=O)(=O)Cc1coc(-c2ccc(F)cc2)n1` | -5.929 | 8.436 |
| `CC(=O)N1CCN(C(=O)c2c(Cl)c3ccccc3n2C)CC1` | 21.3 | 19.79 |
| `CCNC(=O)C1CCN(c2cc(CC)nc3ccnn23)C1` (configuration not stated) | 14.69 | -8.998 |